# From publication PMC4086906
# Sequences of proteins named here, by UniProt entry; tags and fusion partners are left off.
# UniProt Q04724: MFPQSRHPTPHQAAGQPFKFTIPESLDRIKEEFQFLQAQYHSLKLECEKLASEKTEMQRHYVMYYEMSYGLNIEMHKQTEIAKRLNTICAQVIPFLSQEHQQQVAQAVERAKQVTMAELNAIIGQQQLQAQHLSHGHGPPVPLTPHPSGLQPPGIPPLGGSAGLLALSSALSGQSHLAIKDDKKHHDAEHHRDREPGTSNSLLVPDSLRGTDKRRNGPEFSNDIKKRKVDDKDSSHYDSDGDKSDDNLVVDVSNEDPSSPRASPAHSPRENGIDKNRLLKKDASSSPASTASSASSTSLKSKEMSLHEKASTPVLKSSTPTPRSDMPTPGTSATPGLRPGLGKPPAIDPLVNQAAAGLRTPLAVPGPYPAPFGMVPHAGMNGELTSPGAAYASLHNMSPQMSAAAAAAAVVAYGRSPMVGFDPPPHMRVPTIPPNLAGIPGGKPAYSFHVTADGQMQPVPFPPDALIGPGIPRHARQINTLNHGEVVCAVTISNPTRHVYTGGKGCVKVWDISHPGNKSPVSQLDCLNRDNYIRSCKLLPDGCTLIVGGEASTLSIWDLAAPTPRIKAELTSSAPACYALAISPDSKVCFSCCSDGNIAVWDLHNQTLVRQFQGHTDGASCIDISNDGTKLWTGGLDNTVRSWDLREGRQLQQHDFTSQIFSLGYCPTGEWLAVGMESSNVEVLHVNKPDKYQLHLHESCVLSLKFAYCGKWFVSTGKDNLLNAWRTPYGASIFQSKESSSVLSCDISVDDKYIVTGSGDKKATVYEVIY
# Results are given in words; binding and its absence hold for the method and conditions named. Binding seen in cells or lysates may run through a third protein. Some binding calls cover weakened binding; strength is not graded here. For some assays here: Tags and fused reporters may be left off the sequences shown.
# T1: N-terminally myc tagged cytoplasmic localized Bit1 (Bcl-2 inhibitor of transcription 1) (UniProt Q9Y3E5)
# T1 sequence: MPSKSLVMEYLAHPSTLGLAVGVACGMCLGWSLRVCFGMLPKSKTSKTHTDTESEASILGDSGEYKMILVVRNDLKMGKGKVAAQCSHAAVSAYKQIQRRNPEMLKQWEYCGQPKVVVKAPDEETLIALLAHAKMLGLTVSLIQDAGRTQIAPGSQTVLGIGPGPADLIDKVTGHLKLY
# B1: Amino-terminal Enhancer of Split (AES) protein (protein, UniProt Q08117 1-197)
# chain: MMFPQSRHSGSSHLPQQLKFTTSDSCDRIKDEFQLLQAQYHSLKLECDKLASEKSEMQRHYVMYYEMSYGLNIEMHKQAEIVKRLNGICAQVLPYLSQEHQQQVLGAIERAKQVTAPELNSIIRQQLQAHQLSQLQALALPLTPLPVGLQPPSLPAVSAGTGLLSLSALGSQAHLSKEDKNGHDGDTHQEDDGEKSD
# How the values were obtained:
# [1] = biological target: full length GFP-tagged human TLE1 (human) (UniProt Q04724); test: co-IP; A549 cells transfected with vector or GFP-TLE1; 1% Nonidet P-40 lysis buffer (20 mM Tris-HCl pH 7.4, 150 mM NaCl, 10% glycerol); immunoprecipitated with anti-GFP-agarose; blotted with anti-AES and anti-GFP
# [2] = biological target: T1, N-terminally myc tagged cytoplasmic localized Bit1 (Bcl-2 inhibitor of transcription 1); test: co-IP; A549 cells transfected with N-terminally myc tagged Bit1 with or without GFP-TLE1; 1% Nonidet P-40 lysis buffer (20 mM Tris-HCl pH 7.4, 150 mM NaCl, 10% glycerol); immunoprecipitated with anti-Myc-agarose; blotted with anti-AES and anti-myc
binder,measurement,setting,value
B1,binding,[1],binds
same,binding,[2],binds
